From publication PMC3879166
No constants are given. Whether binding was seen depends on the method and setting. For some of these results: In cells and extracts the contact can be indirect. Some binding calls cover weakened binding; strength is not graded here. For some of these results: Sequences can lack the tags named with a protein. One block for each binder: values may come before it.

Amino acid sequences for entries named in this document (tags omitted).
UniProt P49841: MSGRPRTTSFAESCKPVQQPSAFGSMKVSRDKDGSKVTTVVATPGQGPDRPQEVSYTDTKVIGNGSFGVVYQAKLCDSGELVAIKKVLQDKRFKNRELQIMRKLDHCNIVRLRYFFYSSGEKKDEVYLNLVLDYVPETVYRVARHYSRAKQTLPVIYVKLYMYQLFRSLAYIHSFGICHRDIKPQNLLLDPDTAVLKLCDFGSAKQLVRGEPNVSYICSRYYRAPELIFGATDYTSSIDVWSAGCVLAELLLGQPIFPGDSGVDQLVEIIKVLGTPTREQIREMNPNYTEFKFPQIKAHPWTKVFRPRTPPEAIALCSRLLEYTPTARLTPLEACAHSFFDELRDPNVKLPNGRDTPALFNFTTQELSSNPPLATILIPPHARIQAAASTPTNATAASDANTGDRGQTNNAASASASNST
UniProt P04198: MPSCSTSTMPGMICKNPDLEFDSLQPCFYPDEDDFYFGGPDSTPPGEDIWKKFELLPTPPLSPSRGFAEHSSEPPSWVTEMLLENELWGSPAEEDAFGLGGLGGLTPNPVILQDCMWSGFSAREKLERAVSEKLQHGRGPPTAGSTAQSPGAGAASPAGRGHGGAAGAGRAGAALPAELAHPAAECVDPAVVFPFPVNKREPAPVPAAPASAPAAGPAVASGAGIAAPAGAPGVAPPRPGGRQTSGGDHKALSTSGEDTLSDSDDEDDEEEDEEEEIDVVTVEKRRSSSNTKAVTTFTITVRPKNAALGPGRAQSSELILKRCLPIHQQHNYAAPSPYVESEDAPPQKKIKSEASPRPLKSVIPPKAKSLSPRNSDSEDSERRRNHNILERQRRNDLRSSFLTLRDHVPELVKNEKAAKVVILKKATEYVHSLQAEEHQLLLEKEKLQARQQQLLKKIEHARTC

Legend:
[1] = biological target: GSK3β (endogenous, CHP134 cells) (human (endogenous in CHP134)) (UniProt P49841); test: co-IP; whole lysates of CHP134 cells, endogenous proteins; pre-cleared, primary antibody overnight at 4°C, protein G-Sepharose; lysis buffer 50 mM Tris-HCl pH 8.0, 137 mM NaCl, 2.7 mM KCl, 1% Triton X; immunoblotting
[2] = biological target: MYCN protein (endogenous, CHP134 cells) (human (endogenous in CHP134)) (UniProt P04198); test: as above
[3] = biological target: GST-fused GSK3β (Promega) (UniProt P49841); test: pull-down; 0.5 µg purified NCYM with 0.5 µg GST-fused protein, 2 h at 4°C; recovered on glutathione-sepharose beads; binding buffer 50 mM Tris-HCl pH 8.0, 1 mM EDTA, 150 mM NaCl, 0.1% Nonidet P-40; immunoblotting; both purified
GST-fused MYCN (Abnova) = GST-fused MYCN (Abnova) (UniProt P04198); test: as above

binding [1]: binds | binding [2]: binds
B1: NCYM protein (endogenous, CHP134 cells) (protein, UniProt P40205 1-109)
chain: MQHPPCEPGNCLSLKEKKITEGSGGVCWGGETDASNPAPALTACCAAEREANVEQGLAGRLLLCNYERRVVRRCKIAGRGRAPLGTRPLDVSSFKLKEEGRPPCLKINK

binding [3]: binds | binding (GST-fused MYCN (Abnova)): binds
B2: purified full-length NCYM protein (from GST-NCYM, GST cleaved by thrombin) (protein, UniProt P40205 1-109)
chain: B1 chain
